Measurements from “University of Dundee, Small-Polar-MMV Screening Library” (2021), ChEMBL document CHEMBL3988442.

Results are given as percent effect. How 0% and 100% were set is not recorded. Most values in the screen are low, and negative values occur. Compounds were drawn at random from those tested, without regard to their results.

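Assay of Toxoplasma gondii numbers, read through their beta-galactosidase reporter with a colour substrate. Concentration: 50 µM. The record gives no direction; the compounds picked for IC50 retests had high values, so higher reads as fewer parasites. Of about 18,000 compounds tested this way, about 170 (0.94%) reached 50% or more in at least one test.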

SMILES	percent effect
CCCc1ccc(S(=O)(=O)N2CCNCC2)cc1	7.721
Cc1noc(-c2ccc(C(N)=O)cc2)n1	-23.66
OC[C@@H](Cc1ccccc1)NC1CCSC1 (stereo not given in full)	-20.99
CC(O)(CNC1CCC2(CC1)OCCO2)c1ccsc1 (stereo not given)	14.71
CCN(C)CCNC(=O)c1cc(C2CC2)[nH]n1	-6.442
NS(=O)(=O)c1ccc(C(=O)N2CCOCC2)cc1	-7.332
COc1cc2c(cc1OC)CN(C(=O)CCCN)CC2	8.557
CCC(N)c1ncc[nH]1 (stereo not given)	14.82
Cc1cc(=O)n(C)cc1NC(=O)c1ccncc1Cl	-7.724
O=C(Cn1cnnn1)NCC1SCCc2ccccc21 (stereo not given)	6.838
CC(=O)N(CCc1ccccc1)Cc1ccncc1	6.752
CC[C@@H](O)CN1CCC(NC(=O)C2CCC2)CC1	-7.108
CCN1CCC(CNC(=O)Nc2cc(C)nn2C)C1 (stereo not given)	-2.27
CC(=O)c1c(F)cccc1N(C)CCC(C)O (stereo not given)	-0.8587
NC(=O)CN1CCCN(C(=O)c2sccc2Br)CC1	2.336
c1cnc2cc(-c3nc(C4CCOC4)no3)nn2c1 (stereo not given)	3.373
Cc1ccc(NC(=O)Cn2ccnc2)cc1	-6.057
CN1CCC(n2c(=O)[nH]c3ccccc3c2=O)CC1	-5.093
NCc1cnn(-c2cccc(Cl)c2)c1	10.68
N[C@@H](CO)C(=O)N1CCC(Cc2ccc(F)cc2)CC1	13.47
Cc1cccc(Cl)c1NC(=O)NCC1(C)OCCO1	-10.76
Cc1cccc(C(=O)NC(C)c2nnc3n2CCC3)n1 (stereo not given)	4.114
Cn1nc(C(=O)NC2=NCCS2)cc1C(F)(F)F	-38.73
CCn1cnnc1CNCc1c(C)nn(C)c1N(C)C	15.18
Cc1nc(C(F)(F)F)ccc1C(=O)NCCS(C)(=O)=O	-0.3361
CCCNC(=O)CCNC(=O)NCC	30.97
O=C(c1c(F)cc(F)cc1F)C1CCNCC1	-27.88
NCCCC(=O)N1CCc2ccccc21	-30.07
CC(C)NS(=O)(=O)c1cc(CN)ccc1F	-6.708
CCOC(=O)c1cc(C(=O)OCC)n(C)n1	-8.776
CO[C@@H]1COCC[C@H]1NC(=O)CCCn1cncn1	14.86
O=C(CCCc1ccccc1)N1CCNCC1	6.799
Cn1cc(Br)c(CO)n1	1.484
O=C(c1ccc(CN2CCCC2)cc1)N1CCOCC1	0.336
CC1NCCn2c(Cl)ccc21 (stereo not given)	-17.92
C[S+]([O-])CCNC(=O)NC1CCCCC1 (stereo not given)	16.09
Cc1noc(C2COCCN2Cc2cc[nH]c2)n1 (stereo not given)	13.62
NCc1ccc(N2CCCS2(=O)=O)c(F)c1	39.79
Cn1nc(CN)c2ccccc21	-8.806
CC1CCCCN1C(=O)c1ccc(CN)cc1 (stereo not given)	-0.106
COc1cc(OC)cc(C(=O)NCC(C)CN(C)C)c1 (stereo not given)	8.648
CCNC(=O)CN(CC)c1cccc(CO)c1	3.658
CN(C)c1nc(N)nc(COC(=O)C2CCCO2)n1 (stereo not given)	-2.67
COc1ccc(NC(=O)C2CCCN2S(C)(=O)=O)cn1 (stereo not given)	1.889
C=C(C)CN(CC)C(=O)CN(C)CCN1CCOCC1	-10.39
CS(=O)(=O)N1CCN(C(=O)Nc2cccnc2)CC1	-17.07
CCCS(=O)(=O)NCc1cc[nH]n1	-0.05413
CC(C)NC(=O)c1cccc(OCC(N)=O)c1	7.54
CC(=O)c1nc(C)sc1C	-1.051
O=C1CC2(CCSC2)C(=O)N1CCc1cccs1 (stereo not given)	-4.938
C[n+]1ccn(C(=O)N2CCCCC2)c1.[I-]	-1.185
CNCCCOC(C)C	-2.494
Cc1cc2cc(C(=O)NCC3CNCCO3)ccc2o1 (stereo not given)	9.098
O=C(Cc1n[nH]c(=O)c2ccccc12)N1CCC1	19.11
CN(CC(=O)Nc1sccc1C(N)=O)Cc1ccco1	-13.09
COc1ccc(NC(=O)CSc2ncnc(N)n2)cc1	2.842
CNC(=O)NC(=O)CSc1ccccc1F	-1.003